The supplement of paper PMC10849652
The list shows a part of the results.

By UniProt entry, the sequences of proteins in these tests, tags left out. Where a name states a change or a piece, a line headed by the entry shows the natural chain unless it says otherwise.
UniProt Q9BVK2: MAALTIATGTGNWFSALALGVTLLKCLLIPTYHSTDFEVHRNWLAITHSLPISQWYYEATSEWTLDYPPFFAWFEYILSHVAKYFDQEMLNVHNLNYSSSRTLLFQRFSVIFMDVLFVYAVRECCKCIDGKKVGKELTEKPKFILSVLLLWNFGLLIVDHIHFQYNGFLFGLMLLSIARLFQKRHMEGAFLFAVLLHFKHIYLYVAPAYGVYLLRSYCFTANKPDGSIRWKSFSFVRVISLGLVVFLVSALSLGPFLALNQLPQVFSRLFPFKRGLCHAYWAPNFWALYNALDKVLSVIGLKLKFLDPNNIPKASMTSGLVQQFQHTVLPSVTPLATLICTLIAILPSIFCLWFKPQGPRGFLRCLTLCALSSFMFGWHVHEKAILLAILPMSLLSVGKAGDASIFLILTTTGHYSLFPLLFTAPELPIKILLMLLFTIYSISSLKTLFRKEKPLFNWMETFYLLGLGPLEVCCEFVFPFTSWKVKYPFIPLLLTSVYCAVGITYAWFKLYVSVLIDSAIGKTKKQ
UniProt Q6NS38: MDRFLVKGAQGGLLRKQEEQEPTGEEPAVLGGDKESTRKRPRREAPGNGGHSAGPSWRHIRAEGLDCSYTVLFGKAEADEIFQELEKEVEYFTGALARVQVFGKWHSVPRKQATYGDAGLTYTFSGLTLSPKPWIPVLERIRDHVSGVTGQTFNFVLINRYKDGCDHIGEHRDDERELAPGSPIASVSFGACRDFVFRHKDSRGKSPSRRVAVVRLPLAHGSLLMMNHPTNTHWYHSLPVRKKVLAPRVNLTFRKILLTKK
UniProt Q9BTT0: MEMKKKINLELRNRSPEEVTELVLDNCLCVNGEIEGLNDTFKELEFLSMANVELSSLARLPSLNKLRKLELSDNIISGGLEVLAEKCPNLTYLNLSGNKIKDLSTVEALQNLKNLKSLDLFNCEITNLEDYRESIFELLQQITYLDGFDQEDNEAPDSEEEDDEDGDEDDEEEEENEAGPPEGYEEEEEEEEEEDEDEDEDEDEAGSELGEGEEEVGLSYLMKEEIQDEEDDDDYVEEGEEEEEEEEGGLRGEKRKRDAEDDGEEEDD
UniProt Q8WVL7: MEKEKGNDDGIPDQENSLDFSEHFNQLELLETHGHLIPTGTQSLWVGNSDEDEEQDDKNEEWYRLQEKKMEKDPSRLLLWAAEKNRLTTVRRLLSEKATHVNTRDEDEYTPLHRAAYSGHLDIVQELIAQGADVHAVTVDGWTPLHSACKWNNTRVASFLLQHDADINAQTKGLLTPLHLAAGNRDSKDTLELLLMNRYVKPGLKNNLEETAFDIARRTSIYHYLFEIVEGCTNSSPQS
UniProt P08133: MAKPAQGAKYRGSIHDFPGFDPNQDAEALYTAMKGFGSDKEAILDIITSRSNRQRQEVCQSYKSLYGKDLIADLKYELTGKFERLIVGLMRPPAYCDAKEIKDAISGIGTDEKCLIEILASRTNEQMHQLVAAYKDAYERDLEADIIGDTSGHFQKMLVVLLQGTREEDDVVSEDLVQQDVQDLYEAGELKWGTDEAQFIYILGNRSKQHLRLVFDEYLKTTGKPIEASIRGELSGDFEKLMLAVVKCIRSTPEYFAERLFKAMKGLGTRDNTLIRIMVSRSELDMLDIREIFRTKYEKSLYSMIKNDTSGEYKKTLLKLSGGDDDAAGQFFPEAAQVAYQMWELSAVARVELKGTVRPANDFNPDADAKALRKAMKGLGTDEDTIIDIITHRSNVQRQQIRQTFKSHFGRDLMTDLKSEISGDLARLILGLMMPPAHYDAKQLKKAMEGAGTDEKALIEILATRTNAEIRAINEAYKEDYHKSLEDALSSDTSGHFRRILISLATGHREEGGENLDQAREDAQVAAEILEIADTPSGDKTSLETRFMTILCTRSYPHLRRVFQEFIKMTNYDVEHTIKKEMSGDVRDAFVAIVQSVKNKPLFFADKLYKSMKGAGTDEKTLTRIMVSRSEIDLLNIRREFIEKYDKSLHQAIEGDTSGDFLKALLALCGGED
UniProt P13716: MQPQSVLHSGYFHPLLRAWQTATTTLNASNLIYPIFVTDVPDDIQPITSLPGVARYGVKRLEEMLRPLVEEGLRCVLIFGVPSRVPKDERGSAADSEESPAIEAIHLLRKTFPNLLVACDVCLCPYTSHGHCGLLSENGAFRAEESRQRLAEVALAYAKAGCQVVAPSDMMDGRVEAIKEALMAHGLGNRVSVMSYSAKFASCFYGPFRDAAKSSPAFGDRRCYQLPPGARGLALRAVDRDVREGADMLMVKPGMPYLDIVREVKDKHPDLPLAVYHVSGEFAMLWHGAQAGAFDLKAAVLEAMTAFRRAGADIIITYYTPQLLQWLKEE
UniProt P31751: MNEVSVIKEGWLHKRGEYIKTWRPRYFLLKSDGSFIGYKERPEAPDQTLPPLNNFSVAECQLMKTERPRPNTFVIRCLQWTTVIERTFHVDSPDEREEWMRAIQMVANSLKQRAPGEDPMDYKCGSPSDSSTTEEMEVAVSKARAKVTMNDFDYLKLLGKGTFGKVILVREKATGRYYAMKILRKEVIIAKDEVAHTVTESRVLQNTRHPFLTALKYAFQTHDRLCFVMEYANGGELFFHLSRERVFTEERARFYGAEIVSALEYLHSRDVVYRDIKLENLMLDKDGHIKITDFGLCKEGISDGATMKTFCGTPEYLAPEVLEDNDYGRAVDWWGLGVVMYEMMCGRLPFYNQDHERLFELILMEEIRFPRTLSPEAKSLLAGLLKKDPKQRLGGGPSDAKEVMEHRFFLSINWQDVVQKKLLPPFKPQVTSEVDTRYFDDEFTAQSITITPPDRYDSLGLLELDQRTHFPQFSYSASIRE
UniProt Q8N6D5: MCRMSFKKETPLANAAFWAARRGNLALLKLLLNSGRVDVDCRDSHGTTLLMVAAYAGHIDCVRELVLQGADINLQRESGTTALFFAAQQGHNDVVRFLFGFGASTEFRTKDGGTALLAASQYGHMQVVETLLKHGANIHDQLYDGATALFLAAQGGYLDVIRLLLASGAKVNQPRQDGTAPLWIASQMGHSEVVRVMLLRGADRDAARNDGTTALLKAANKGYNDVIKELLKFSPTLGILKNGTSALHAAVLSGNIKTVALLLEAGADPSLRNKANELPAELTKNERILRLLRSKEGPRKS
UniProt Q96BT7: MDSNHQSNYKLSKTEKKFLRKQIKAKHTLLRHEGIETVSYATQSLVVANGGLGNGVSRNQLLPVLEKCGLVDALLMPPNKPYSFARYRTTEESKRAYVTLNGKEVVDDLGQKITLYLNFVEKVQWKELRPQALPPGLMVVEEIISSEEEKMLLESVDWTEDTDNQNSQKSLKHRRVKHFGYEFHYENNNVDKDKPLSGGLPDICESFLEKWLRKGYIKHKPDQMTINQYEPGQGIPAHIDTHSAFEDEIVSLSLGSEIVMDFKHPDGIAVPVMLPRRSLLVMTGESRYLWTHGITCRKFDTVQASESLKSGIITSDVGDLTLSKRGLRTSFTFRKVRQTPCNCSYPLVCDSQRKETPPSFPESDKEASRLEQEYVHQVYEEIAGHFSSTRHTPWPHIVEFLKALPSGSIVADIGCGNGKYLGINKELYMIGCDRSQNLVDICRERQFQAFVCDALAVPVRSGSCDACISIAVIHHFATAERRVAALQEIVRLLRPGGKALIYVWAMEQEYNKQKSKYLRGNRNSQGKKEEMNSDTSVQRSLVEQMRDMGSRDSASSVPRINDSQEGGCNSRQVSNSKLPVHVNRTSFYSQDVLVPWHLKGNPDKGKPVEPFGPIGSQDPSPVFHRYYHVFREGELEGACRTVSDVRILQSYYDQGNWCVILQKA
UniProt Q8IWZ3: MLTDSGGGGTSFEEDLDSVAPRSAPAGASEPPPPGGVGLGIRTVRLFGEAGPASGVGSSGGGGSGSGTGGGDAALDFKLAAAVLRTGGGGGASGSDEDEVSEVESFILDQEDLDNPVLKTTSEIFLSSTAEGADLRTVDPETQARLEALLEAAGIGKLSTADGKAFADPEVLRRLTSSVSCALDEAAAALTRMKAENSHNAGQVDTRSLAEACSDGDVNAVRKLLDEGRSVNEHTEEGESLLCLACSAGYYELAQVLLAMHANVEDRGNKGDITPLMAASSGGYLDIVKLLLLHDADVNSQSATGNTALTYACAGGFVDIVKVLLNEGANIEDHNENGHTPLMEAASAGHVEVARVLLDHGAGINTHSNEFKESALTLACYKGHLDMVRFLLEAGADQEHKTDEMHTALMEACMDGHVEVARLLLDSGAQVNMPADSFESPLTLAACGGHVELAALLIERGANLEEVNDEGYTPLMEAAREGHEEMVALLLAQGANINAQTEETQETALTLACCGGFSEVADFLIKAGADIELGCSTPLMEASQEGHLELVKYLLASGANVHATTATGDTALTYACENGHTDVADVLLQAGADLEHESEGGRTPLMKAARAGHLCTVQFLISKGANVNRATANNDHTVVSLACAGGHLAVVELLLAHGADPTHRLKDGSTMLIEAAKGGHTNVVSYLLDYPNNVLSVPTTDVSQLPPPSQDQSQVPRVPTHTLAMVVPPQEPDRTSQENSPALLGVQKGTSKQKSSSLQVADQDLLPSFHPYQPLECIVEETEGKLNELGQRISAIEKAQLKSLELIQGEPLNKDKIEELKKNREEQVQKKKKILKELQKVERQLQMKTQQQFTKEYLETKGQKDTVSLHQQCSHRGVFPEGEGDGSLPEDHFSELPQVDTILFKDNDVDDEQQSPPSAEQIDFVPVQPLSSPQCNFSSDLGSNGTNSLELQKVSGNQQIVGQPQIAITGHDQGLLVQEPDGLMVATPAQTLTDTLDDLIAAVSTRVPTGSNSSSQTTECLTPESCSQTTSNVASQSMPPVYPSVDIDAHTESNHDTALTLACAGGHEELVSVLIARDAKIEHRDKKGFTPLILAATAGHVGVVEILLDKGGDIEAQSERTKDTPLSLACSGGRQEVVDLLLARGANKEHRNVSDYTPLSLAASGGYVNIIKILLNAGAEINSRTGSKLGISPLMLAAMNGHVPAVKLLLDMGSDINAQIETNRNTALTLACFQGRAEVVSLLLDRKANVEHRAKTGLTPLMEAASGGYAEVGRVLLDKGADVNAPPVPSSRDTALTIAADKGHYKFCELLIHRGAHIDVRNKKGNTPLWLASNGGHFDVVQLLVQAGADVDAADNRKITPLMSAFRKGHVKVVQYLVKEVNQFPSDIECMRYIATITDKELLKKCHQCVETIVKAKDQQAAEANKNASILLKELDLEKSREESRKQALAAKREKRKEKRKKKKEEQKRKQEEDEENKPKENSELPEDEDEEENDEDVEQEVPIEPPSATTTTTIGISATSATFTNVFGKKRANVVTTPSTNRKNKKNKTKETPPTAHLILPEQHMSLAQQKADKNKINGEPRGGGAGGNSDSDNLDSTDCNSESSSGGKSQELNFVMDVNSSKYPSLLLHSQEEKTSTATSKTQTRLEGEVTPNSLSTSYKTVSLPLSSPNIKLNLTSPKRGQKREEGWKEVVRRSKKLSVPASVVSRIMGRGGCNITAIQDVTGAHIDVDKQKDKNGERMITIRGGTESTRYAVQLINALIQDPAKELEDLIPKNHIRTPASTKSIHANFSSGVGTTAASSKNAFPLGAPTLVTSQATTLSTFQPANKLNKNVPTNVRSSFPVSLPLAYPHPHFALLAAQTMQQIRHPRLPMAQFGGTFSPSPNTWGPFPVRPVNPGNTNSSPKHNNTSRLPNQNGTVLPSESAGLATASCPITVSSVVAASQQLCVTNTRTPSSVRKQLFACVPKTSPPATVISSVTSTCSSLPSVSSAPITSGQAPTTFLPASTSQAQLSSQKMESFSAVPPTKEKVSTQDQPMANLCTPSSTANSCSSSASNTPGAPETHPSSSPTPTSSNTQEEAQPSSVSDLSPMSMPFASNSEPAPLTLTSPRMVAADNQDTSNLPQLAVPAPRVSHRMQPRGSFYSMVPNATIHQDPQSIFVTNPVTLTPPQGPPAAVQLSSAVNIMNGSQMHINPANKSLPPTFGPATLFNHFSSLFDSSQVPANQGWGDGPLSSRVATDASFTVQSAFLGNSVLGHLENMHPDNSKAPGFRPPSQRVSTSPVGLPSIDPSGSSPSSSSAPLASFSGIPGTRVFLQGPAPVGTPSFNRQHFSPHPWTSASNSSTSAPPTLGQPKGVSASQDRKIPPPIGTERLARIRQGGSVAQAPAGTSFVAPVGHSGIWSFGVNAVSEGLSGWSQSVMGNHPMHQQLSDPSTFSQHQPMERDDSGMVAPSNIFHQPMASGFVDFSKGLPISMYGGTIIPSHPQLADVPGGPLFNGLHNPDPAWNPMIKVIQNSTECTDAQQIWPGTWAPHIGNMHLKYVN

compound: Cc1nc(Nc2n[nH]c3c2CN(C(=O)N[C@H](CN(C)C)c2ccccc2)C3(C)C)c2sccc2n1; assay: log2 fold change, soluble protein after heating vs DMSO (PISA); higher = thermal stabilisation; K562 lysate, 10 uM; active = over 0.2 and 3.5 SD of the protein, either way, in both replicates (recomputed)
In short: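 To prepare the extract, K562 pellets were dounce-homogenised in PBS pH 7.4 with 1 mM MgCl2, giving crude material at 1 mg/mL protein. This was treated with 10 μM compound for 30 min, then heated in aliquots for 3 min over 48°C-58°C before pooling and addition of NP-40 to 0.5% at 4°C. Centrifugation at 21,000xg for 90 min left soluble protein in the supernatant, which TMTpro 16plex LC-MS/MS quantified with equalised channel sums. Results are log-two fold changes in thermal stability compared with solvent controls, from duplicates.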

log2 fold change, inactive:
ALDH4A1 (UniProt P30038) 0.022, ALG8 (UniProt Q9BVK2) -0.008, AP3M1 (UniProt Q9Y2T2) -0.001, ALS2 (UniProt Q96Q42) 0.038, ANXA7 (UniProt P20073) -0.005, ALKBH2 (UniProt Q6NS38) 0.019, ANKRD13D isoform 3 (UniProt Q6ZTN6) -0.035, AMD1 (UniProt P17707) -0.04, AKT1S1 isoform 3 (UniProt Q96B36) 0.025, ANO6 (UniProt Q4KMQ2) 0.01, ANAPC2 (UniProt Q9UJX6) 0.012, ANP32E (UniProt Q9BTT0) 0.025, ANKRD49 (UniProt Q8WVL7) -0.022, AP2S1 (UniProt P53680) 0.029, ANXA2 isoform 2 (UniProt P07355) -0.016, ANKRD28 (UniProt O15084) 0.003, ALDH16A1 (UniProt Q8IZ83) 0.019, ANKMY2 (UniProt Q8IV38) 0.002, AP1G1 isoform 2 (UniProt O43747) 0, ANKRD52 (UniProt Q8NB46) 0.003, ALDH2 (UniProt P05091) -0.017, ANK3 (UniProt Q12955) 0.008, AP1S2 isoform 2 (UniProt P56377) -0.04, ANXA6 (UniProt P08133) 0.004, ALAD (UniProt P13716) -0.001, AKT2 (UniProt P31751) -0.004, ANKS1A (UniProt Q92625) -0.023, ANO10 (UniProt Q9NW15) 0.031, ANKRD29 (UniProt Q8N6D5) -0.139, ALKBH8 isoform 4 (UniProt Q96BT7) -0.061, ALDH1A2 (UniProt O94788) -0.02, ANKHD1 isoform 6 (UniProt Q8IWZ3) -0.013, ALDOA (UniProt P04075) -0.012, AP2M1 (UniProt Q96CW1) 0.018
